Assay results from patent US12060400B2, “Peptides for use in immunotherapy against cancers” (Immatics Biotechnologies GmbH, priority 2018, dated 2024).

Assays:
[1] = system: HLA molecules of primary tumor and normal tissue samples (cancer entities); assay: Identification and label-free LC-MS quantitation of HLA-presented tumor-associated peptides on tissue samples; parameters: species or system human; conditions: cancer entities on whose tumor tissue samples the HLA-presented peptide was found (LC-MS); abbreviations in the footnotes of Table 8a
[2] = system: source gene exon mRNA in tumor and normal tissue samples; assay: Expression profiling (RNAseq) of genes encoding the peptides, tumor versus normal tissues; parameters: species or system human; conditions: RNAseq, Table 9a; for Exon Expression in tumor types vs normal tissue panel: highly over-expressed (++): tumor types in which the peptide's exon is highly over-expressed (++) vs panel of normal tissues; for Exon Expression in tumor types vs normal tissue panel: over-expressed (+): tumor types in which the peptide's exon is over-expressed (+) vs panel of normal tissues

## 147: peptide found in DLL3 (gene looked up) (FPYPSSILSV; listed as Homo sapiens) [compound 147]
[1]
  Peptide Presentation on cancer entities: GBM
[2]
  Exon Expression in tumor types vs normal tissue panel: highly over-expressed (++): GBM, SCLC
  Exon Expression in tumor types vs normal tissue panel: over-expressed (+): MEL

## 152: peptide found in MMP13 (gene looked up) (MHPGVLAAFLF; listed as Homo sapiens) [compound 152]
[1]
  Peptide Presentation on cancer entities: NSCLCadeno
[2]
  Exon Expression in tumor types vs normal tissue panel: highly over-expressed (++): HNSCC, NSCLCsquam, OSCAR
  Exon Expression in tumor types vs normal tissue panel: over-expressed (+): NSCLCadeno, UBC

## 153: peptide found in LOXL4 (gene looked up) (AWSPPATLF; listed as Homo sapiens) [compound 153]
[1]
  Peptide Presentation on cancer entities: MEL
[2]
  Exon Expression in tumor types vs normal tissue panel: highly over-expressed (++): MEL
  Exon Expression in tumor types vs normal tissue panel: over-expressed (+): CCC

## 155: peptide found in F5 (gene looked up) (PYSIYPHGVTF; listed as Homo sapiens) [compound 155]
[1]
  Peptide Presentation on cancer entities: HCC
[2]
  Exon Expression in tumor types vs normal tissue panel: highly over-expressed (++): HCC
  Exon Expression in tumor types vs normal tissue panel: over-expressed (+): CCC

## 157: peptide found in F5 (gene looked up) (SIYPHGVTF; listed as Homo sapiens) [compound 157]
[1]
  Peptide Presentation on cancer entities: PRCA
[2]
  Exon Expression in tumor types vs normal tissue panel: highly over-expressed (++): HCC
  Exon Expression in tumor types vs normal tissue panel: over-expressed (+): CCC

## 176: peptide found in FLT3 (gene looked up) (TQAGEYLLF; listed as Homo sapiens) [compound 176]
[1]
  Peptide Presentation on cancer entities: AML
[2]
  Exon Expression in tumor types vs normal tissue panel: highly over-expressed (++): AML

## 178: peptide found in FLT3 (gene looked up) (AYPQIRCTW; listed as Homo sapiens) [compound 178]
[1]
  Peptide Presentation on cancer entities: AML
[2]
  Exon Expression in tumor types vs normal tissue panel: highly over-expressed (++): AML

## 183: peptide found in FLT3 (gene looked up) (YQVAKGMEF; listed as Homo sapiens) [compound 183]
[1]
  Peptide Presentation on cancer entities: NSCLCadeno
[2]
  Exon Expression in tumor types vs normal tissue panel: highly over-expressed (++): AML

## 187: peptide found in LIN28A (gene looked up) (KWFNVRMGFGF; listed as Homo sapiens) [compound 187]
[1]
  Peptide Presentation on cancer entities: NHL
[2]
  Exon Expression in tumor types vs normal tissue panel: highly over-expressed (++): HCC, SCLC
  Exon Expression in tumor types vs normal tissue panel: over-expressed (+): GBC, MEL, OC, UBC, UEC

## 190: peptide found in FLT3 (gene looked up) (IYIIMQSCW; listed as Homo sapiens) [compound 190]
[1]
  Peptide Presentation on cancer entities: AML
[2]
  Exon Expression in tumor types vs normal tissue panel: highly over-expressed (++): AML

## 201: peptide found in PTPRZ1 (gene looked up) (VFPSVDVSF; listed as Homo sapiens) [compound 201]
[1]
  Peptide Presentation on cancer entities: CRC, GBM
[2]
  Exon Expression in tumor types vs normal tissue panel: highly over-expressed (++): GBM

## 202: peptide found in PTPRZ1 (gene looked up) (VYDTMIEKFA; listed as Homo sapiens) [compound 202]
[1]
  Peptide Presentation on cancer entities: GBM, NSCLCadeno, NSCLCother, NSCLCsquam
[2]
  Exon Expression in tumor types vs normal tissue panel: highly over-expressed (++): GBM

## 203: peptide found in PTPRZ1 (gene looked up) (VYPSESTVM; listed as Homo sapiens) [compound 203]
[1]
  Peptide Presentation on cancer entities: GBM
[2]
  Exon Expression in tumor types vs normal tissue panel: highly over-expressed (++): GBM

## 204: peptide found in MMP16 (gene looked up) (WQNVTPLTF; listed as Homo sapiens) [compound 204]
[1]
  Peptide Presentation on cancer entities: NSCLCsquam
[2]
  Exon Expression in tumor types vs normal tissue panel: highly over-expressed (++): GBM, MEL
  Exon Expression in tumor types vs normal tissue panel: over-expressed (+): BRCA

## 214: peptide found in HTR7 (gene looked up) (YIPMSVMLF; listed as Homo sapiens) [compound 214]
[1]
  Peptide Presentation on cancer entities: NSCLCadeno
[2]
  Exon Expression in tumor types vs normal tissue panel: highly over-expressed (++): HNSCC, UBC
  Exon Expression in tumor types vs normal tissue panel: over-expressed (+): AML, NSCLCsquam, OSCAR

## 215: peptide found in PTPRZ1 (gene looked up) (KASKITFHW; listed as Homo sapiens) [compound 215]
[1]
  Peptide Presentation on cancer entities: GBM
[2]
  Exon Expression in tumor types vs normal tissue panel: highly over-expressed (++): GBM

## 216: peptide found in LOXL4 (gene looked up) (RHYHSIEVF; listed as Homo sapiens) [compound 216]
[1]
  Peptide Presentation on cancer entities: HCC
[2]
  Exon Expression in tumor types vs normal tissue panel: highly over-expressed (++): MEL

## 221: peptide found in CCR8 (gene looked up) (VFYCLLFVF; listed as Homo sapiens) [compound 221]
[1]
  Peptide Presentation on cancer entities: CCC, NSCLCsquam
[2]
  Exon Expression in tumor types vs normal tissue panel: highly over-expressed (++): NHL
  Exon Expression in tumor types vs normal tissue panel: over-expressed (+): BRCA, CCC, HNSCC, MEL, NSCLCadeno, NSCLCother, NSCLCsquam, OSCAR, UBC

## 223: peptide found in PTPRZ1 (gene looked up) (KLRALSILF; listed as Homo sapiens) [compound 223]
[1]
  Peptide Presentation on cancer entities: PRCA
[2]
  Exon Expression in tumor types vs normal tissue panel: highly over-expressed (++): GBM

## 225: peptide found in CYP1A1 (gene looked up) (ISMSATEFLL; listed as Homo sapiens) [compound 225]
[1]
  Peptide Presentation on cancer entities: OSCAR
[2]
  Exon Expression in tumor types vs normal tissue panel: highly over-expressed (++): NSCLCother

## 226: peptide found in FLT3 (gene looked up) (TYSTNRTMI; listed as Homo sapiens) [compound 226]
[1]
  Peptide Presentation on cancer entities: CCC
[2]
  Exon Expression in tumor types vs normal tissue panel: highly over-expressed (++): AML

## 227: peptide found in CYP1A1 (gene looked up) (YLPNPSLNAF; listed as Homo sapiens) [compound 227]
[1]
  Peptide Presentation on cancer entities: CLL, GC, NSCLCadeno, NSCLCsquam
[2]
  Exon Expression in tumor types vs normal tissue panel: highly over-expressed (++): NSCLCother

## 236: peptide found in PGR (gene looked up) (LHLYCLNTF; listed as Homo sapiens) [compound 236]
[1]
  Peptide Presentation on cancer entities: CCC
[2]
  Exon Expression in tumor types vs normal tissue panel: highly over-expressed (++): UEC
  Exon Expression in tumor types vs normal tissue panel: over-expressed (+): BRCA

## 240: peptide found in APOB (gene looked up) (RVHANPLLI; listed as Homo sapiens) [compound 240]
[1]
  Peptide Presentation on cancer entities: HCC
[2]
  Exon Expression in tumor types vs normal tissue panel: highly over-expressed (++): HCC

## 241: peptide found in ESR1 (gene looked up) (QKYYITGEAEGF; listed as Homo sapiens) [compound 241]
[1]
  Peptide Presentation on cancer entities: OSCAR
[2]
  Exon Expression in tumor types vs normal tissue panel: highly over-expressed (++): BRCA, UEC

## 246: peptide found in NPFFR2 (gene looked up) (KIYTTVLFANI; listed as Homo sapiens) [compound 246]
[1]
  Peptide Presentation on cancer entities: HCC
[2]
  Exon Expression in tumor types vs normal tissue panel: highly over-expressed (++): HCC
  Exon Expression in tumor types vs normal tissue panel: over-expressed (+): GBC

For part of these data: Expression values are those of the mRNA of the gene that encodes the peptide; a gene is named only where it was looked up.
